Test results published in publication PMC11079228.
No constants are given. Whether binding was seen depends on the method and setting. In cells and extracts the contact can be indirect. A yes stands for co-enrichment or nearness to the bait. Other partners may have been found. Values belong to the binder of their own block, whether it stands above or below them.

Biological target: Huntingtin-interacting protein 1 (rat) (rat (endogenous in rat FLS))
Test: affinity purification with mass spectrometry; rabbit anti-rat-HIP1 antibody (20 μg per sample) on Dynabeads M-270 Epoxy; total lysates of rat FLS (one DA and one R6 cell line, each in triplicate), starved 24 h, then PDGFβ 100 ng/mL 30 min; lysis in water with protease and phosphatase inhibitors by three freeze-thaw cycles; elution with 8 M urea, LysC and trypsin, nano-LC-MS/MS, label-free quantitation

binding: binds
B1: chromatin modifying protein 4B-like 1 (protein, UniProt D4A9Z8 1-224)
chain: MSVFGKLFGAGWGKAGKGDPTPQEAIQRLRDTEEMLSKKQEFLEKKIEQELTAAKKHGTKNKRAALQALKRKKRYEKQLAQIDGTLSTIEFQREALENANTNTEVLKNMGYAAKAMKAAHDNMDIDKVDELMQDIADQQELAEQTSTAISKPVGFGEEFDKDELMAELEELEQEELDKNLLEISGPETVPLPNVPSVALPSKPAKKKEEEDDDMKELENWAGSM

binding: binds
B2: ACO2 (protein, UniProt Q9ER34 28-780)
chain: QRAKVAMSHFEPSEYIRYDLLEKNINIVRKRLNRPLTLSEKIVYGHLDDPANQEIERGKTYLRLRPDRVAMQDATAQMAMLQFISSGLPKVAVPSTIHCDHLIEAQLGGEKDLRRAKDINQEVYNFLATAGAKYGVGFWRPGSGIIHQIILENYAYPGVLLIGTDSHTPNGGGLGGICIGVGGADAVDVMAGIPWELKCPKVIGVKLTGTLSGWTSPKDVILKVAGILTVKGGTGAIVEYHGPGVDSISCTGMATICNMGAEIGATTSVFPYNHRMKKYLSKTGRADIANLAEEFKDHLVPDPGCQYDQVIEINLNELKPHINGPFTPDLAHPVADVGTVAEKEGWPLDIRVGLIGSCTNSSYEDMGRSAAVAKQALAHGLKCKSQFTITPGSEQIRATIERDGYAQILRDVGGIVLANACGPCIGQWDRKDIKKGEKNTIVTSYNRNFTGRNDANPETHAFVTSPEIVTALAIAGTLKFNPETDFLTGKDGKKFKLEAPDADELPRSDFDPGQDTYQHPPKDSSGQRVDVSPTSQRLQLLEPFDKWDGKDLEDLQILIKVKGKCTTDHISAAGPWLKFRGHLDNISNNLLIGAINIENGKANSVRNAVTQEFGPVPDTARYYKKHGIRWVVIGDENYGEGSSREHAALEPRHLGGRAIITKSFARIHETNLKKQGLLPLTFADPSDYNKIHPVDKLTIQGLKDFAPGKPLNCIIKHPNGTQETILLNHTFNETQIEWFRAGSALNRMKELQQ

binding: binds
B3: Na(+)/H(+) exchange regulatory cofactor NHE-RF1 (protein, UniProt Q9JJ19 1-356)
chain: MSADAAAGEPLPRLCCLEKGPNGYGFHLHGEKGKVGQFIRLVEPGSPAEKSGLLAGDRLVEVNGENVEKETHQQVVSRIRAALNAVRLLVVDPETDEQLKKLGVPIREELLRAQEKSEHTEPPAAADTKKAGDQNEAEKSHLERCELRPRLCTMKKGPNGYGFNLHSDKSKPGQFIRAVDPDSPAEASGLRAQDRIVEVNGVCMEGKQHGDVVSAIKAGGDEAKLLVVDKETDEFFKKCRVTPSQEHLDGPLPEPFSNGEIQKENSREALVEPASESPRPALARSASSDTSEELNAQDSPKRHDSTEPSSTSSSSDPILDFNISLAVAKERAHQKRSSKRAPQMDWSKKNELFSNL

binding: binds
B4: Kinesin-like protein;Kinesin-like protein KIF1C (rat) (protein, UniProt O35787 1-1097)
chain: MAGASVKVAVRVRPFNARETSQDAKCVVSMQGNTTSIINPKQSRMFLKASFDYSYWSHTSVEDPQFASQQQVYRDIGEEMLLHAFEGYNVCIFAYGQTGAGKSYTMMGRQEPGQQGIVPQLCEDLFSRVNVNQSAQLSYSVEVSYMEIYCERVRDLLNPKSRGSLRVREHPILGPYVQDLSKLAVTSYADIADLMDCGNKARTVAATNMNETSSRSHAVFTIVFTQRSHDQLTGLDSEKVSKISLVNLAGSERADSSGARGMRLKEGANINKSLTTLGKVISALADLQSKKRKSDFIPYRDSVLTWLLKENLGGNSRTAMIAALSPADINYEETLSTLRYADRTKQIRCNAVINEDPNARLIRELQEEVARLRELLMAQGLSASALGGLKVEEGSPGGVLPAASSPPAPASPSSPPPHNGELEPSFSPSAEPQIGPEEAMERLQETEKIIAELNETWEEKLRKTEALRMEREALLAEMGSPGGWRTVGVFSPKKTPHLVNLNEDPLMSECLLYHIKDGVTRVGQVDVDIKLTGQFIREQHCLFRSIPQPDGEVMVTLEPCEGAETYVNGKLVTEPLVLKSGNRIVMGKNHVFRFNHPEQARLERERGVPPPPGPPSEPVDWNFAQKDWLEQQGIDIKLEMEKRLQDLENQYRKEKEEADLLLEQQRLYADSDSGEDSDKRSCEESWRLISSLRDELPPNTVQTIVKRCGLPSSGKRRAPRRVYQIPQRRRLQGKDPRWATMADLKMQAVKEICYEVALADFRHGRAEIEALAALKMRELCRTYGKPEGPGDAWRAVARDVWDTVGEEEGCGGGGGGGEEGARGAEVEDLRAHIDKLTGILQEVKLQNSSKDRELQALRDRMLRMERVIPLTQDLEDDNEESGLVTWAPPEGSEAVEEAVSNDHSPAVRPSSPPQSSWERVSRLMEEDPAFRRGRLRWLKQEQLRLQGLQGSGGRGGGLRRPPARFVPPHDCKLRFPFKSNPQHRESWPGMGSGEAPGPQPPEEVTAPPPPPNRRPPSPRRPHRPRRNSLDGGSRSRGGGSTQPEPQHLRPQKHNSYPQQPQPYPAQRPGPRYPPYTTPPRMRRQRSAPDLKESGAAV

binding: binds
B5: T-complex protein 1 subunit beta (protein, UniProt Q5XIM9 1-535)
chain: MASLSLAPVNIFKAGADEERAETARLSSFIGAIAIGDLVKSTLGPKGMDKILLSSGRDASLMVTNDGATILKNIGVDNPAAKVLVDMSRVQDDEVGDGTTSVTVLAAELLREAESLIAKKIHPQTIIAGWREATKAAREALLSSAVDHGSDEVKFWQDLMNIAGTTLSSKLLTHHKDHFTKLAVEAVLRLKGSGNLEAIHVIKKLGGSLADSYLDEGFLLDKKIGVNQPKRIENAKILIANTGMDTDKIKIFGSRVRVDSTAKVAEIEHAEKEKMKEKVERILKHGINCFINRQLIYNYPEQLFGAAGVMAIEHADFAGVERLALVTGGEIASTFDHPELVKLGSCKLIEEVMIGEDKLIHFSGVALGEACTIVLRGATQQILDEAERSLHDALCVLAQTVKDPRTVYGGGCSEMLMAHAVTMLASRTPGKEAVAMESFAKALRMLPTIIADNAGYDSADLVAQLRAAHSEGRITAGLDMKEGSIGDMAVLGITESFQVKRQVLLSAAEAAEVILRVDNIIKAAPRKRVPDHHPC

binding: binds
B6: PARK7 (protein, UniProt O88767 1-189)
chain: MASKRALVILAKGAEEMETVIPVDIMRRAGIKVTVAGLAGKDPVQCSRDVVICPDTSLEEAKTQGPYDVVVLPGGNLGAQNLSESALVKEILKEQENRKGLIAAICAGPTALLAHEVGFGCKVTSHPLAKDKMMNGSHYSYSESRVEKDGLILTSRGPGTSFEFALAIVEALSGKDMANQVKAPLVLKD

binding: binds
B7: KN motif and ankyrin repeat domains 2 (protein, UniProt D3ZD05 1-847)
chain: MAQVLHVPAPFPGTPGQASSAAFPNKEPDPPYSVETPYGYRLDLDFLKYVDDIEKGHTLRRVPVQRRPRLGSLPRGPGSWWTSTESLCSDASGDSRHSAYSYCGRGFYPQYGALETRSGTNPRVERTLLDARRRLEDQAAAPSSGGLGSLTPSAAGSTSSLAGVGLLPPTPRSSGLSTPVAPSAGHLAHVREQMAGALRKLRQLEEQVKLIPVLQVKLSVLQEEKRQLTVQLKSQKFLGHPSGTRSRSELCLDLPEAPDDPAVLETRSVGTWVRERDLGIPDGEAALVAKVAVLETQLKKALQELRAAQTQQVDLQPQAWPPPDTQVRVDTVRVVEGPREVEVAASTAAGAPAQRAQSLEPYGAGLKALATSAENTLVFRSHEVVETMCPLPTASTSNMHTAKKISITERNCTGAARMADPPPSPAEPSPSSPYPAAEPENPAPAAQDTTDRELTRPVASQDSQAAEGAGGASLGVQSALKRKEVPADPDVHQRNLQFVGINGGYESSSEDSSTAENSEHESTENEAPEPPVRVLSTAEGPQLRPLGPAVGKTSQDERQLSQESQRVPEAKVAPGPDPEEEIRMDLSPDLISACLALEKYLENPNALTERELKVAYTTVLQEWLRLACRSDAHPELVRRHLVTFRAMSARLLDYVVNIADSNGNTALHYSVSHANFPVVRQLLDSGVCQVDKLNRAGYSPIMLTALATLKTQDDIDTILQLFRLGNVNAKASQAGQTALMLAVSHGRVDVVKALLACEVDVNMQDEDGSTALMCACEHGHKEITGLLLAVPSCDISLTDRDGSTALMVALDAGQSEIASMLYSRMNIKCSFAPMSDYESPASSSAEE

binding: binds
B8: Adaptin ear-binding coat-associated protein 1 (protein, UniProt P69682 1-277)
chain: MAAELEYESVLCVKPDVSVYRIPPRASNRGYRASDWKLDQPDWTGRLRITSKGKIAYIKLEDKVSGELFAQAPVEQYPGIAVETVADSSRYFVIRIQDGTGRSAFIGIGFTDRGDAFDFNVSLQDHFKWVKQETEISKESQEMDSRPKLDLGFKEGQTIKLSIGNITAKKGGTSKPRASGTGGLSLLPPPPGGKVTIPPPSSSVAISNHVTPPPIPKSNHGSNDSDILLDLDSPAPVPTSAPAPAPASTSNDLWGDFSTASSSVPNQAPQPSNWVQF

binding: binds
B9: RNA-binding motif protein, X chromosome retrogene-like; (protein, UniProt Q4V898 1-390)
chain: MVEADRPGKLFIGGLNTETNEKALEAVFGKYGRIVEVLLMKDRETNKSRGFAFVTFESPADAKDAARDMNGKSLDGKAIKVEQATKPSFESGRRGLPPPPRSRGPPRGLRGGRGGSGGTRGPPSRGGHMDDGGYSMNFTLSSSRGPLPVKRGPPPRSGGPPPKRSAPSGPVRSSSGMGGRAPVSRGRDGYGGPPRREPLPSRRDVYLSPRDDGYSTKDSYSSRDYPSSRDTRDYAPPPRDYTYRDYGHSSSRDDYPSRGYSDRDGYGRERDYSDHPSGGSYRDSYESYGNSRSAPPTRGPPPSYGGSSRYDDYSSSRDGYGGSRDSYTSSRSDLYSSGRDRVGRQERGLPPSMERGYPPPRDSYSSSSRGAPRGGGRGGSRSDRGGRSRY

binding: binds
B10: Lactadherin (protein, UniProt P70490 23-427)
chain: ASGDFCDSSLCLNGGTCLMGQDNDIYCLCPEGFTGLVCNETEKGPCSPNPCFHDAKCLVTEDTQRGDIFTEYICQCPVGYSGIHCELGCSTKLGLEGGAIADSQISASSVYMGFMGLQRWGPELARLYRTGIVNAWTASSYDSKPWIQVDFLRKMRVSGVMTQGASRAGRAEYLKTFKVAYSLDGRRFEFIQDESGTGDKEFMGNQDNNSLKINMFNPTLEAQYIRLYPVSCHRGCTLRFELLGCELHGCSEPLGLKNNTIPDSQITASSSYKTWNLRAFGWYPHLGRLDNQGKINAWTAQSNSAKEWLQVDLGTQKKVTGIITQGARDFGHIQYVASYKVAHSDDGVQWTVYEEQGTSKVFQGNLDNNSHKKNIFEKPFMARYVRVLPLSWHNRITLRLELLGC
